Literature values in publication PMC10356901, “Mitochondria-derived peptide SHLP2 regulates energy homeostasis through the activation of hypothalamic neurons” (Nature Communications, 2023).

Details: cited from earlier work

Mito chondrial Open Reading Frame of the 12S rRNA-c (MRWQEMGYIFYPRKLR; UniProt A0A0C5B5G6 1-16, looked up) [MOTS-c, mitochondrial-derived peptide encoded by the mitochondrial 12S rRNA gene]
circulating MOTS-c in diabetes patients: reduced in diabetes patients | plasma levels with age: plasma levels tend to decline with age

humanin: 24-amino-acid peptide encoded by the mitochondrial 16S ribosomal RNA gene
humanin level in human diseases: decreased in human diseases such as Alzheimer’s disease, mitochondrial encephalopathy, lactic acidosis, and stroke-like episodes | plasma levels with age: plasma levels tend to decline with age
